Measured values as given in PMC8277862.
Results are given in words; binding and its absence hold for the method and conditions named. Binding seen in cells or lysates may run through a third protein. Some entries that bind do so weakly or less than the wild type.

Target: T1, Mesh (D. melanogaster (endogenous in midgut of line RAL-399)) (UniProt Q0KHY3)
T1 sequence: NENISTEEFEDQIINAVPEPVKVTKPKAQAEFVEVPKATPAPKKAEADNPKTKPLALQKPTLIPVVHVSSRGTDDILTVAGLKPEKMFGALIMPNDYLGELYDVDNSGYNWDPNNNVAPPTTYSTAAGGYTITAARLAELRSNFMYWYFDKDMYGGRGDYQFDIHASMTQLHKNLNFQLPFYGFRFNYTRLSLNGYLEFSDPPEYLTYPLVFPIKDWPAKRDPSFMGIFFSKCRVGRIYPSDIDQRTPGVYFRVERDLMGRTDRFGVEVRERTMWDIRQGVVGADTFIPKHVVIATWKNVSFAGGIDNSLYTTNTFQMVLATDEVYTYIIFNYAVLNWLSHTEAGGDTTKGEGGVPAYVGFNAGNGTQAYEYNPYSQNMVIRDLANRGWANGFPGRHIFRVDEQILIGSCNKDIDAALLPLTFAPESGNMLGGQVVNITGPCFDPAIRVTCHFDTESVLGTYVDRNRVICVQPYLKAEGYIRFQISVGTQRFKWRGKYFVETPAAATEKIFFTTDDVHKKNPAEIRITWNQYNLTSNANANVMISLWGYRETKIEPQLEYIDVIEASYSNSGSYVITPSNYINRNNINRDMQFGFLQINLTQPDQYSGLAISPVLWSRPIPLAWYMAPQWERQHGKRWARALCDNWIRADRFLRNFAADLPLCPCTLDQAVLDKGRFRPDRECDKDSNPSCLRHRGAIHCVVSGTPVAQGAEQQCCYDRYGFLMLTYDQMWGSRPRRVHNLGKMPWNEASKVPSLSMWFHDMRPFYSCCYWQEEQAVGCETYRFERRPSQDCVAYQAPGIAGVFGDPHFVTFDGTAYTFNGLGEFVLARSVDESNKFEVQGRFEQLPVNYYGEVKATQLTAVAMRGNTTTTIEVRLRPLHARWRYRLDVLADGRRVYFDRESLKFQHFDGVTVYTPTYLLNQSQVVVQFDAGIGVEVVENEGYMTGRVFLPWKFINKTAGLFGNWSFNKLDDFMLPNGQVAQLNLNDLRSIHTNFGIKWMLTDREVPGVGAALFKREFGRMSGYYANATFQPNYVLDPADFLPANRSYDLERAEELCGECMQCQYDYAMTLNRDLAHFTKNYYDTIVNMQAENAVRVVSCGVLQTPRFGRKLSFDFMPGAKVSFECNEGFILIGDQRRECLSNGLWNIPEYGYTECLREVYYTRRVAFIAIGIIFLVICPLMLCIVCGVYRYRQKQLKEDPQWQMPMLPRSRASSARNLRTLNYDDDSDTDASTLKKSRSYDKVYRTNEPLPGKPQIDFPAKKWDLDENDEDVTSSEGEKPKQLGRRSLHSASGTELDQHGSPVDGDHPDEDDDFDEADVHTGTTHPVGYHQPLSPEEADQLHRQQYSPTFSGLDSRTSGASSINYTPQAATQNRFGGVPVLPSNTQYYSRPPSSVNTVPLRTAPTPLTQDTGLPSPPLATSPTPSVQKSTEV
Assay: co-IP; antibody against Mesh (1:100) and A/G beads, Pierce Crosslink Magnetic IP/Co-IP kit, midgut lysate of line RAL-399 in IP lysis buffer, overnight at 4 °C, five washes; Ssk and Ssk-FB4 in the precipitate quantified by in-gel digestion and PRM-MS

B1: Ssk (Snakeskin) (protein, UniProt Q9VW87 1-162)
chain: MVSVETVGSIFIKALKLIINLVIIFLYRWGDGGEFLGIGGTWNLNEEKSADAEIVASGVMVGFLIYTGCHTIAFAFGTTKHKGELCDTIMNVVGCIMWIAVGGVALHYWKGYMSDEGFLYVNSERQVGIAMGSLCVIEGALYLLDTVLACIHYSKGDTDYTQ
With B1 the binding was “binds”.
